From article PMC2854715, “Oxpholipin 11D: An Anti-Inflammatory Peptide That Binds Cholesterol and Oxidized Phospholipids” (PLoS ONE, 2010)
Non-standard residues stand in square brackets, D forms with d. Residues, ends and D or L forms follow the SMILES beside them. dDip = N[C@@H](C(=O)O)C(c1ccccc1)c1ccccc1

Key:
[1] = Circular dichroism analysis of secondary structure; format: physicochemical
[2] = FTIR analysis of secondary structure; format: physicochemical; settings: peak area error ±4%
[3] = peptide 100 µM in 10 mM phosphate buffer pH 7.4, 25°C
[4] = peptide 100 µM in HFIP:10 mM phosphate buffer pH 7.4 (4∶6, v:v), 25°C
[5] = deuterium vapor hydrated DMPC multilayers, peptide:lipid 1∶10 mole:mole
[6] = hydrated DMPC:CHO (1.2∶1 mole:mole) multilayers, peptide:lipid 1∶10 mole:mole
[7] = peptide 1 mM in HFIP:deuterated buffer 4∶6 v:v, 25°C
[8] = peptide 1 mM in TFE:deuterated buffer 4∶6 v:v, 25°C
[9] = peptide 1 mM in deuterated 10 mM phosphate buffer pD 7.4, 25°C

Molecule	Conformation (%) disordered, CD [1, 3] [%]	Conformation (%) turns, CD [1, 3] [%]	Conformation (%) α-helix, CD [1, 3] [%]	Conformation (%) β-sheet, CD [1, 3] [%]	Conformation (%) disordered, CD [1, 4] [%]	Conformation (%) turns, CD [1, 4] [%]	Conformation (%) α-helix, CD [1, 4] [%]	Conformation (%) β-sheet, CD [1, 4] [%]	Conformation (%) disordered, FTIR [2, 5] [%]	Conformation (%) turns, FTIR [2, 5] [%]	Conformation (%) α-helix, FTIR [2, 5] [%]	Conformation (%) β-sheet, FTIR [2, 5] [%]	Conformation (%) disordered, FTIR [2, 6] [%]	Conformation (%) turns, FTIR [2, 6] [%]	Conformation (%) α-helix, FTIR [2, 6] [%]	Conformation (%) β-sheet, FTIR [2, 6] [%]	Conformation (%) disordered, FTIR [2, 7] [%]	Conformation (%) turns, FTIR [2, 7] [%]	Conformation (%) α-helix, FTIR [2, 7] [%]	Conformation (%) β-sheet, FTIR [2, 7] [%]	other results
CC(C)C[C@@H](NC(=O)CNC(=O)[C@H](NC(=O)[C@H](NC(=O)[C@@H](CCC(=O)O)NC(=O)[C@H](N)CCCNC(=N)N)C(c1ccccc1)c1ccccc1)[C@H](C)O)C(=O)N[C@H](C)C(=O)N[C@H](Cc1c[nH]c2ccccc12)C(=O)N[C@H](CCC(=O)O)C(=O)N[C@H](Cc1c[nH]c2ccccc12)C(=O)N[C@H](Cc1c[nH]c2ccccc12)C(=O)N[C@H](CCCNC(=N)N)C(=O)N[C@@H](C(=O)N[C@@H](C(N)=O)C(C)C)[C@H](C)O [OxP-11D] (H-[dR][dE][dDip][dT]G[dL][dA][dW][dE][dW][dW][dR][dT][dV]-NH2; N-terminus assumed)	36.0	19.0	15.0	30.0	28.0	33.0	25.0	14.0	24.2	24.4	26.5	24.9	20.2	27.7	29.5	22.6	20.0	37.3	32.4	10.3	Conformation (%) disordered, FTIR [2, 8]: 13.2%; Conformation (%) turns, FTIR [2, 8]: 31.0%; Conformation (%) α-helix, FTIR [2, 8]: 32.9%; Conformation (%) β-sheet, FTIR [2, 8]: 22.9%; Conformation (%) disordered, FTIR [2, 9]: 21.4%; Conformation (%) turns, FTIR [2, 9]: 24.8%; Conformation (%) α-helix, FTIR [2, 9]: 20.1%; Conformation (%) β-sheet, FTIR [2, 9]: 33.7%
Ac-DWFKAFYDKVAEKFKEAF-NH2 [D-4F, a prominent apoA-I-mimetic peptide, Ac-…-NH2, reference compound]	10.0	12.0	65.0	13.0	6.0	9.0	74.0	11.0	23.9	16.4	57.8	1.9	22.6	15.2	58.1	4.1	8.6	8.0	71.5	11.9	Conformation (%) disordered, FTIR [2, 8]: 12.7%; Conformation (%) turns, FTIR [2, 8]: 8.8%; Conformation (%) α-helix, FTIR [2, 8]: 67.2%; Conformation (%) β-sheet, FTIR [2, 8]: 11.3%; Conformation (%) disordered, FTIR [2, 9]: 13.7%; Conformation (%) turns, FTIR [2, 9]: 11.4%; Conformation (%) α-helix, FTIR [2, 9]: 63.0%; Conformation (%) β-sheet, FTIR [2, 9]: 11.8%
